Assay results from PMC10163288.
Some of the results follow.

B1: il10ra_site1_normal_mot_8756ee2cf497b5429c717dfc0c0bcfd6_0001_000000186_0001_1_13_H_._HHH_b2_06621_af2_0001_0000100003_0000002_0 (protein)
chain: SSSSTESERVAELIREAARAENDGNPEEAEELLEEAKELAEEANNDVLRFQIEYLERLLKESSSS
B2: il10ra_site1_normal_mot_HHH_b1_04940_000000219_0001_1_18_H_._HHH_b1_07612_0001_0000200015_0000001_0 (protein)
chain: SSSSEYVELSLRFARWLYEEGDERALRRVFEAIETILENDGDPEIEEILEEVEELIRKLEGSSSS
B3: il10ra_site1_sap_17_mot_HHH_b2_07145_000000158_0001_24_40_H_._HHH_b1_07351_0001_0000100015_0000002_0_0001 (protein)
chain: SSSSSEEVWELIKELLELLAEGDKEEAERVIQEIEELAEERGNQLLRFLVELLKREVEKSSSSSS
B4: il10ra_site1_normal_mot_HHH_b2_00800_af2_000000047_0001_1_20_H_._HHH_b1_05749_0001_0000400036_0000001_0 (protein)
chain: SSSSQEEYEFVREVIKEARELFEEGDPEKARELLEEAEKEAEELGNPLVKFSLEALLKALRSSSS
B5: il10ra_site1_sap_16_mot_HHH_b2_04274_000000146_0001_1_19_H_._HHH_b2_07966_0001_0000200054_0000002_0_0001 (protein)
chain: SSSSTEHEEAFRLLERVVELHAEGDEEELEELLEEAEKIAQEANNDVILWQLEYLKRLLESSSSS
B6: il10ra_site1_normal_mot_HHH_b1_03333_000000091_0001_1_17_H_._HHH_b1_08629_af2_0001_0000300012_0000001_0 (protein)
chain: SSSSNELYEEVKKLIEEVVELIREGDEERAEELLEQIEELAEKFNNVAVRAALEALRRDLKSSSS
B7: il10ra_site1_normal_mot_HHH_b1_03900_000000129_0001_1_16_H_._HHH_b2_00742_af2_0001_0000100003_0000002_0 (protein)
chain: SSSSSEEERRLYELIKRAARLLIRGNPEEAEKVTEELKRLAEELGNEAAEKAVKILEEAASSSSS
B8: il10ra_site1_normal_mot_HHH_b2_07938_000000207_0001_42_56_H_._HHH_b1_00772_af2_0001_0000100001_0000002_0 (protein)
chain: SSSSSEELEKFVEELVEKFGLSEQQEEYLRAAARALLERGVSEEEIKHMLEIQAELLALGSSSSS
B9: il10ra_site1_normal_mot_HHH_b2_06954_000000276_0001_1_20_H_._HHH_b2_04149_0001_0000200004_0000001_0_af2pred_0001 (protein)
chain: SSSSSEEEEIKEALLLAARVFAHLTDPELAQELARLALELARTGDPELAEELFELARELGSSSSS
B10: il10ra_site1_sap_8_mot_05ca327611f5605f0dd8494b449afcbf_0001_1_000000248_0001_35_51_H_._HHH_b2_07461_af2_0001_0000100001_0000001_0_0001 (protein)
chain: SSSSQESYRLAREFIEEIIRLQEEGDREEAERLAEELLELLRELGDQNTTYAVEVLLRAVRSSSS
B11: il10ra_site1_sap_19_mot_HHH_b1_03460_000000139_0001_1_20_H_._HHH_b2_01396_0001_0000100015_0000001_0_0001 (protein)
chain: SSSSDEERQRAIRLAQHAIRYALKRNDPELLRELWELIHRLAREGDPELAEELAELAERILSSSS
B12: il10ra_site1_normal_mot_HHH_b2_00475_000000002_0001_44_57_H_._HHH_b1_01360_0002_0000100003_0000002_0_af2pred_0001 (protein)
chain: SSSSSSEELLELAEKSIELAEELGDEEKIRIAAHALFNTAKNLNDPEALRFAEEVLERVNSSSSS
B13: il10ra_site1_normal_mot_HHH_b1_05098_000000185_0001_1_18_H_._HHH_b1_08425_0001_0000400026_0000001_0 (protein)
chain: SSSSDEEKQRLLELSLEAFRLALRGNPEEARKVVEEAEELAEELNNEELLRTIRELLQALSSSSS
B14: il10ra_site1_sap_22_mot_HHH_b1_06128_000000102_0001_1_20_H_._HHH_b2_03538_af2_0001_0000200012_0000002_1_0001 (protein)
chain: SSSSDREERIKELQEEIEELIERNDREEALRLLMEALRLAYEAGDEELLRELWELLHLVRSSSSS
B15: il10ra_site1_sap_18_mot_HHH_b1_08446_000000041_0001_1_19_H_._HHH_b1_03012_0001_0000700024_0000001_0_0001 (protein)
chain: SSSSDEAYERLRKLVELIHEATSEEEEEELREELERLEREARENGDWIVVMQIEFLLEELNSSSS
B16: il10ra_site1_normal_mot_HHH_b2_03346_af2_000000019_0001_1_18_H_._HHH_b2_07961_0001_0000300037_0000001_0_af2pred_0001 (protein)
chain: SSSSDRIEEALELTLRLLERLLELGNEEAFKSLFHAARLLAERHNDEEVEEELERLEELLESSSS
B17: il10ra_site1_sap_19_mot_HHH_b2_03220_af2_000000223_0001_23_40_H_._HHH_b1_07137_af2_0001_0000600011_0000001_0_0001 (protein)
chain: SSSSDSREIYRLSREAAELAREGNPEEARELLRKALELAEELNDMILFHLVEWLLEMLEGSSSSS
B18: il10ra_site1_normal_mot_42c349ed7ecc24df8868883d370ad53f_0001_000000116_0001_19_33_H_._12f07e73ac0f89cdf9148c08efb246fb_0001_1_0001_0000300016_0000001_0_af2pred … (protein)
chain: DALAALEAAWAAGDAERATALIKELALKAGEEQDPRLEAVVRLLSNAFLANDPALLAQARAAYLE

What follows are binders tested against il10ra, Q13651 (assay: yeast display titration).

Row | Binder | apparent Kd
1 | B1 | inactive: no binding seen
2 | B2 | inactive: no binding seen
3 | B3 | inactive: no binding seen
4 | B4 | inactive: no binding seen
5 | B5 | inactive: no binding seen
6 | B6 | inactive: no binding seen
7 | B7 | inactive: no binding seen
8 | B8 | inactive: no binding seen
9 | B9 | inactive: no binding seen
10 | B10 | inactive: no binding seen
11 | B11 | inactive: no binding seen
12 | B12 | inactive: no binding seen
13 | B13 | inactive: no binding seen
14 | B14 | inactive: no binding seen
15 | B15 | inactive: no binding seen
16 | B16 | inactive: no binding seen
17 | B17 | inactive: no binding seen
18 | B18 | inactive: no binding seen

Part of the list above, field by field.
B3
  apparent Kd: inactive: no binding seen
B17
  apparent Kd: inactive: no binding seen
